± gives the standard deviation of the averaged measurements. Only a part is listed here, and it is no random draw.
Compound: Nc1ncnc2c1ncn2[C@@H]1O[C@H](COP(=O)(O)OP(=O)(O)OP(=O)(O)O)[C@@H](O)[C@H]1O [adenosine triphosphate]
Test: NP40-soluble protein abundance relative to vehicle (solubility fold change) (ratio); higher = more soluble protein in presence of ATP
Summary of the method: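 Data come from three independent experiments in which Dounce-homogenised Jurkat crude lysate was treated at eight concentrations from 0.1 to 10 mM. Treatment ran 10 min at room temperature and then 3 min at 37 °C, after which 0.8% NP40 and benzonase were added for 60 min at 4 °C before ultracentrifugation. The supernatant underwent TMT labelling and LC-MS/MS, and vsn-normalised intensities were expressed as fold change against the detergent-processed vehicle in each replicate.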

Protein sequences, listed by entry. Tags and fused reporters are not part of them. Lines headed by an entry give the natural chain unless they say otherwise; changes in a name come on top.
UniProt Q9Y5K6, whole entry: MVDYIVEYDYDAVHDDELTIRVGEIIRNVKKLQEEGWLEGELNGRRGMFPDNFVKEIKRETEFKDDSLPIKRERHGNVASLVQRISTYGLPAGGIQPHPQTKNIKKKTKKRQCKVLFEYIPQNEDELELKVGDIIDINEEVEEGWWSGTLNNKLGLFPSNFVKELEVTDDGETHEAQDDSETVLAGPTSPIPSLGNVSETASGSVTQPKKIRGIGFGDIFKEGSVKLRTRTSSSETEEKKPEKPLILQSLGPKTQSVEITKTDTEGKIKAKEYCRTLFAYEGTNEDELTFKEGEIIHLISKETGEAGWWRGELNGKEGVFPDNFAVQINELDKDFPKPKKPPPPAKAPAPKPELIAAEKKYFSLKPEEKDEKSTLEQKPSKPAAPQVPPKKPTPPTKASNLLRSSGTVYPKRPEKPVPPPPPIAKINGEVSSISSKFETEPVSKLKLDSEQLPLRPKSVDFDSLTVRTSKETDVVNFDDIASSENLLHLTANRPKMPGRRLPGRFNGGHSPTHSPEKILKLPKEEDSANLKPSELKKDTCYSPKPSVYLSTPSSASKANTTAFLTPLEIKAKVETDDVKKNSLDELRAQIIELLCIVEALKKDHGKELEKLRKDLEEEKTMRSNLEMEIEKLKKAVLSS
UniProt Q9Y3Q8: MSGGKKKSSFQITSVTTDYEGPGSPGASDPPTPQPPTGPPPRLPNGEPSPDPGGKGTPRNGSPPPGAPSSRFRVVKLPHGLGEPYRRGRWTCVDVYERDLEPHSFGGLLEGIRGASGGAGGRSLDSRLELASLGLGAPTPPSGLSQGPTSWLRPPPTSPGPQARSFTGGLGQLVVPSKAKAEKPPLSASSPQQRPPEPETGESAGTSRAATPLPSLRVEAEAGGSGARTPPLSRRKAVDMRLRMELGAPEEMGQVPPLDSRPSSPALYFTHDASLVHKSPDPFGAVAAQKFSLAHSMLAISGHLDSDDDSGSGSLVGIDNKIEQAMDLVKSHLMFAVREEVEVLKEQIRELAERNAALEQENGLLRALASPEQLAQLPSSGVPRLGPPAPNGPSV
UniProt Q9Y2Q0: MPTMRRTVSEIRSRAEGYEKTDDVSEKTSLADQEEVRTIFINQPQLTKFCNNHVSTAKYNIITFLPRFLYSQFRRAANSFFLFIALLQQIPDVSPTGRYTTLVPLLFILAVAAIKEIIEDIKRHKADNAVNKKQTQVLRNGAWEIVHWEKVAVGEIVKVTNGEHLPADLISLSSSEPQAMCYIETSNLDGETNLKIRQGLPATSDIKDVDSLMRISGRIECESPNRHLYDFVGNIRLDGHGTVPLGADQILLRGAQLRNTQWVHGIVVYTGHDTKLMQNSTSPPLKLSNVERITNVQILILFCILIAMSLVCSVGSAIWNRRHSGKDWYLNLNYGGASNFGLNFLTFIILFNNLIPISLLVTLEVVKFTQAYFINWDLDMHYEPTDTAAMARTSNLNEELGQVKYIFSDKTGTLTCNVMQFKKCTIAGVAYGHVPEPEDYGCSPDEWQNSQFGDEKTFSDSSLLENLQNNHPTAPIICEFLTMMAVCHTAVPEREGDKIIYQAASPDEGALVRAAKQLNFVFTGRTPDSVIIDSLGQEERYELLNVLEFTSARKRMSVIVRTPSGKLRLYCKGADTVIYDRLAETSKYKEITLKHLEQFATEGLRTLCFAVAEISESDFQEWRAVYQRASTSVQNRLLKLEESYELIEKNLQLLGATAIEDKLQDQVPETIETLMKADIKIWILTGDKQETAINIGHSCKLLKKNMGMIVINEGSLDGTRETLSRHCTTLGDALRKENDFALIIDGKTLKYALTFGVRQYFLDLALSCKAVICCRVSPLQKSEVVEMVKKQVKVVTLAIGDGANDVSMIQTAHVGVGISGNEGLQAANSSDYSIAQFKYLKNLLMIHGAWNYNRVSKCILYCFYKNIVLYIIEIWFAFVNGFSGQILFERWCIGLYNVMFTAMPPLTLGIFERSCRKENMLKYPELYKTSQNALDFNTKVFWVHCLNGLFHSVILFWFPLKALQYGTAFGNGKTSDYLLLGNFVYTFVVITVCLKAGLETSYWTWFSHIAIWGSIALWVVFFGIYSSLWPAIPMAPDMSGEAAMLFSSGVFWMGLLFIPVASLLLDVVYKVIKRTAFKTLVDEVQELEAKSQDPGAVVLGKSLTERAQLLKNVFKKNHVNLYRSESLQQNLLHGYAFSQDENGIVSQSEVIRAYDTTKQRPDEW
UniProt Q9Y584: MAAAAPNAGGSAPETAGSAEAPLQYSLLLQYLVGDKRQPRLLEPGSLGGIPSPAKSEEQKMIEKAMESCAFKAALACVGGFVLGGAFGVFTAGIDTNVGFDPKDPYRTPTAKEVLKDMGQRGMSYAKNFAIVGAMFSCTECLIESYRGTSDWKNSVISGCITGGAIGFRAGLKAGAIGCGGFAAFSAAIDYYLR
UniProt Q9Y697: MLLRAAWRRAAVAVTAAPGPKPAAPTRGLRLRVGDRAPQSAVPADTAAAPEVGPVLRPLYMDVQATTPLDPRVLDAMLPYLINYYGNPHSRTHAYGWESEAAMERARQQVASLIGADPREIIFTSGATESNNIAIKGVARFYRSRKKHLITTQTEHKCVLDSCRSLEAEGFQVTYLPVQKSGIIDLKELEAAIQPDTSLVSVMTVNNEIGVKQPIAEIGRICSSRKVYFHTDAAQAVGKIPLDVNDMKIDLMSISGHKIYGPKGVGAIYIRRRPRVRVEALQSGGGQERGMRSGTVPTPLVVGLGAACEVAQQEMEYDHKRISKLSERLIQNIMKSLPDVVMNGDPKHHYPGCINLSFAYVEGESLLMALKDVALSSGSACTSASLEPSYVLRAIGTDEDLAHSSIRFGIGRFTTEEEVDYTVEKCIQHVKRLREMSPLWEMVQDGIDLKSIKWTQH
UniProt Q9Y547: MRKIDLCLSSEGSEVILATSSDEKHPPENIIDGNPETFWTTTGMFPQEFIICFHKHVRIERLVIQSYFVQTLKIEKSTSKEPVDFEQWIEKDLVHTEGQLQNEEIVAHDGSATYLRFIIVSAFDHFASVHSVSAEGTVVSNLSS
UniProt Q9Y5Z9: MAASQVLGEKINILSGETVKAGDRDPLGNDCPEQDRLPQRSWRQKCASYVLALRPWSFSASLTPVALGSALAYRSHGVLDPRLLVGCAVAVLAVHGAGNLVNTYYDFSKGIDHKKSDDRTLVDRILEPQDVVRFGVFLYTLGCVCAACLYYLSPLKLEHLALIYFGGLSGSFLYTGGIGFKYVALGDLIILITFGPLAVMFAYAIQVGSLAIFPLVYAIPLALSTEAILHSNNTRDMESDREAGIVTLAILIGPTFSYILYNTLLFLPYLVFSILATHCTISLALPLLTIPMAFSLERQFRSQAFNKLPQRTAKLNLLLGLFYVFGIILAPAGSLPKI
UniProt Q9Y5B6: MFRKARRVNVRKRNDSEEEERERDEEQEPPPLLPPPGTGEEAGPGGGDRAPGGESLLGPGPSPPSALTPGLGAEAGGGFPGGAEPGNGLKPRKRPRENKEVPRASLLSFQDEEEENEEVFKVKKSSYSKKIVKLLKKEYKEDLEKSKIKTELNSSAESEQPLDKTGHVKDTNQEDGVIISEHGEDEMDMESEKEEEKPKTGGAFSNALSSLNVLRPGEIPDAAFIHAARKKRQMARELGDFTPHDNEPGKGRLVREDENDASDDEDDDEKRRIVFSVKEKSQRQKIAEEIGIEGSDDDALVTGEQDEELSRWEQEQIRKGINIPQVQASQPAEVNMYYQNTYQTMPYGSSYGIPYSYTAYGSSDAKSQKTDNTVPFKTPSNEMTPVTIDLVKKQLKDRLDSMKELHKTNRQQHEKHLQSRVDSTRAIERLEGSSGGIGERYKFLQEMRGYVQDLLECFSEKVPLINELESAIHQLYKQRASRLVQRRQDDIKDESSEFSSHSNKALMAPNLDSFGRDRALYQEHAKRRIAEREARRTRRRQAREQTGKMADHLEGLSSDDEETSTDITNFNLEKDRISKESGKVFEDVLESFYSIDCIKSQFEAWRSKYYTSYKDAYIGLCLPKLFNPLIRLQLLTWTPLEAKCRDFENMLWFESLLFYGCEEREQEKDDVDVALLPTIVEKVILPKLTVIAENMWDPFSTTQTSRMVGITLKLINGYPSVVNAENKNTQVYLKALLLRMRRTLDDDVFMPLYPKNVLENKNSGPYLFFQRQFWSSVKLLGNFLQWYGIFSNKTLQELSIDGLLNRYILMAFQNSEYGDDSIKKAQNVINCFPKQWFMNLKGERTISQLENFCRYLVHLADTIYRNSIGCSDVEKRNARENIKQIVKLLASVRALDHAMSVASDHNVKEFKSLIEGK
UniProt Q9Y678: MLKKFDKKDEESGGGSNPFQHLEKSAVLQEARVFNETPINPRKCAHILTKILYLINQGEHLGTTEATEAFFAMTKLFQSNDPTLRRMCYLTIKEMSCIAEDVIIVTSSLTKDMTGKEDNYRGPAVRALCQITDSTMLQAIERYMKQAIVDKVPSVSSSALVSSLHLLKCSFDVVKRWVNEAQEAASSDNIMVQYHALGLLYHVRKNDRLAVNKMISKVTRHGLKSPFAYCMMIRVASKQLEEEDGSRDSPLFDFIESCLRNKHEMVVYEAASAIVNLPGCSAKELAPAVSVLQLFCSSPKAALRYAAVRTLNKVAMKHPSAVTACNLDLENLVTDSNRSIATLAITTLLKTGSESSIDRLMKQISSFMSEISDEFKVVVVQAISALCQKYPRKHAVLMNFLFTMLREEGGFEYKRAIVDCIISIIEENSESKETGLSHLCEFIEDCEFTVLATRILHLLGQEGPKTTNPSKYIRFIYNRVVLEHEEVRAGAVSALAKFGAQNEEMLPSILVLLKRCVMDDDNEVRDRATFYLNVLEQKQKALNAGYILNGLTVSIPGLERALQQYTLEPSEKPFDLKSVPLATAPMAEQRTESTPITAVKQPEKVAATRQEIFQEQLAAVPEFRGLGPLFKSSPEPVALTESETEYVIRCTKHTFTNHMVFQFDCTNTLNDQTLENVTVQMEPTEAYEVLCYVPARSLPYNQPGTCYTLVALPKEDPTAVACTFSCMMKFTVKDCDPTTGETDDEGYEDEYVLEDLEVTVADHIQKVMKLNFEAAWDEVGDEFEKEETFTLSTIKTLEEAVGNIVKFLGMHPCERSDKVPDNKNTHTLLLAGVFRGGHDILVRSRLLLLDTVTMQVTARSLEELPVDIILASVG
UniProt Q9Y5X3: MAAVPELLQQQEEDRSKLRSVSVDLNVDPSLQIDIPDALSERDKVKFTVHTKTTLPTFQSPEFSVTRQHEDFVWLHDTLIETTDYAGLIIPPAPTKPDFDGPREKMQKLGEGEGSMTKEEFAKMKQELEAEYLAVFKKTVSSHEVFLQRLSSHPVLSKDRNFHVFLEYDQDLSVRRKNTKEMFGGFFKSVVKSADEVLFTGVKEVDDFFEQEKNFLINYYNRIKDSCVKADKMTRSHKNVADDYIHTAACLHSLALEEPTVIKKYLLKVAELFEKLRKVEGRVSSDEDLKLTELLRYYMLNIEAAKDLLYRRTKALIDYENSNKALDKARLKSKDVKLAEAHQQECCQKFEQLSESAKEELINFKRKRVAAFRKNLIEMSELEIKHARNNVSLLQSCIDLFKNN
UniProt Q9Y376: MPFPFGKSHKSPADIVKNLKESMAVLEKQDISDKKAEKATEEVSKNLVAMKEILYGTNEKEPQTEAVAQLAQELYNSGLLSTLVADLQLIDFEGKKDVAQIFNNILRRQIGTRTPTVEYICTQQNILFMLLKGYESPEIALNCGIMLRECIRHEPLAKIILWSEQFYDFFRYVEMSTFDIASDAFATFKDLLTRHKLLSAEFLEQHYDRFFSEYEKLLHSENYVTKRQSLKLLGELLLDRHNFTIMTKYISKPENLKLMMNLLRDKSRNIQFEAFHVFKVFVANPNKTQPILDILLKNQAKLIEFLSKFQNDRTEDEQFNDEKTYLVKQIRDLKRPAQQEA
UniProt Q9Y6H1: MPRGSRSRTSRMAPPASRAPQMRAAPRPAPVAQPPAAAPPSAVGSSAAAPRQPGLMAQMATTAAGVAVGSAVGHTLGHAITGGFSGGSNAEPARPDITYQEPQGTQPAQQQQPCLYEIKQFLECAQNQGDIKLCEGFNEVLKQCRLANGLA
UniProt Q9Y696: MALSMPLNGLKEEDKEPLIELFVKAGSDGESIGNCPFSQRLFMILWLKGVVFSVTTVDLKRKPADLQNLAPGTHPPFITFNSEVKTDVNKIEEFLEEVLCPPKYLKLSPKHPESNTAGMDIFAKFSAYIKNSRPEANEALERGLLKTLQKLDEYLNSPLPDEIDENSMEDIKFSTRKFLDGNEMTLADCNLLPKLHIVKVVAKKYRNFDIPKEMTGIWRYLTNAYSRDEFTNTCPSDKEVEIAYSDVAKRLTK

Target	NP40-soluble protein abundance (concentration: 1mM)	NP40-soluble protein abundance (concentration: 2mM)	NP40-soluble protein abundance (concentration: 4mM)	NP40-soluble protein abundance (concentration: 6mM)	NP40-soluble protein abundance (concentration: 8mM)	NP40-soluble protein abundance (concentration: 10mM)
CD2AP (UniProt Q9Y5K6)	0.9636 ± 0.002	0.947 ± 0.012	0.918 ± 0.021	0.978 ± 0.034	0.927 ± 0.041	0.93 ± 0.028
UniProt Q9Y3Q8 and related entries	0.982 ± 0.1	0.952 ± 0.05	0.954 ± 0.092	0.952 ± 0.11	0.919 ± 0.05	0.909 ± 0.019
UniProt Q9Y2Q0 and related entries	1.01 ± 0.045	0.995 ± 0.06	0.96 ± 0.09	0.995 ± 0.068	0.947 ± 0.062	0.999 ± 0.037
TIMM22 (UniProt Q9Y584)	0.839 ± 0.049	0.872 ± 0.064	0.902 ± 0.088	0.908 ± 0.14	0.813 ± 0.15	0.855 ± 0.14
UniProt Q9Y697 and related entries	1 ± 0.059	1 ± 0.042	0.993 ± 0.022	0.941 ± 0.074	0.997 ± 0.019	1.01 ± 0.044
UniProt Q9Y2X0-2|Q9Y2X0-3|Q9Y2X0	1.14 ± 0.14	1.04 ± 0.086	1.07 ± 0.093	0.937 ± 0.014	1.09 ± 0.074	1.01 ± 0.064
HSPB11 (UniProt Q9Y547)	1.05 ± 0.063	1.07 ± 0.066	1.03 ± 0.12	0.981 ± 0.083	1.02 ± 0.056	1.04 ± 0.05
DYNC1LI1 (UniProt Q9Y6G9)	0.982 ± 0.043	0.958 ± 0.048	0.924 ± 0.051	0.968 ± 0.13	0.942 ± 0.066	0.939 ± 0.032
UBIAD1 (UniProt Q9Y5Z9)	0.939 ± 0.09	0.997 ± 0.22	1.07 ± 0.13	1.01 ± 0.26	1 ± 0.1	0.901 ± 0.012
UniProt Q9Y5B6 and related entries	1.04 ± 0.058	1.095 ± 0.0086	1.2 ± 0.028	1.2 ± 0.025	1.16 ± 0.088	1.35 ± 0.039
UniProt Q9Y678	1.01 ± 0.068	1.01 ± 0.041	1 ± 0.041	0.958 ± 0.057	0.991 ± 0.033	1.01 ± 0.043
SNX5 (UniProt Q9Y5X3)	0.969 ± 0.023	0.9777 ± 0.0064	0.944 ± 0.012	0.972 ± 0.024	0.936 ± 0.021	0.938 ± 0.032
CAB39 (UniProt Q9Y376)	0.922 ± 0.045	0.954 ± 0.033	0.912 ± 0.028	0.882 ± 0.1	0.909 ± 0.034	0.932 ± 0.016
CHCHD2 (UniProt Q9Y6H1)	0.961 ± 0.075	0.926 ± 0.099	0.958 ± 0.039	0.958 ± 0.12	0.865 ± 0.12	0.849 ± 0.093
CLIC4 (UniProt Q9Y696)	0.988 ± 0.037	0.992 ± 0.036	0.972 ± 0.018	0.985 ± 0.04	0.956 ± 0.034	0.955 ± 0.044
